Data published in paper PMC9512921.
Results are given in words; binding and its absence hold for the method and conditions named. In cells and extracts the contact can be indirect. Binding calls can cover weak binding; strength is not graded here. Tags and fused reporters may be left off the sequences shown.

Biological target: T1, Flag-USP15 WT (UniProt Q9Y4E8)
T1 sequence: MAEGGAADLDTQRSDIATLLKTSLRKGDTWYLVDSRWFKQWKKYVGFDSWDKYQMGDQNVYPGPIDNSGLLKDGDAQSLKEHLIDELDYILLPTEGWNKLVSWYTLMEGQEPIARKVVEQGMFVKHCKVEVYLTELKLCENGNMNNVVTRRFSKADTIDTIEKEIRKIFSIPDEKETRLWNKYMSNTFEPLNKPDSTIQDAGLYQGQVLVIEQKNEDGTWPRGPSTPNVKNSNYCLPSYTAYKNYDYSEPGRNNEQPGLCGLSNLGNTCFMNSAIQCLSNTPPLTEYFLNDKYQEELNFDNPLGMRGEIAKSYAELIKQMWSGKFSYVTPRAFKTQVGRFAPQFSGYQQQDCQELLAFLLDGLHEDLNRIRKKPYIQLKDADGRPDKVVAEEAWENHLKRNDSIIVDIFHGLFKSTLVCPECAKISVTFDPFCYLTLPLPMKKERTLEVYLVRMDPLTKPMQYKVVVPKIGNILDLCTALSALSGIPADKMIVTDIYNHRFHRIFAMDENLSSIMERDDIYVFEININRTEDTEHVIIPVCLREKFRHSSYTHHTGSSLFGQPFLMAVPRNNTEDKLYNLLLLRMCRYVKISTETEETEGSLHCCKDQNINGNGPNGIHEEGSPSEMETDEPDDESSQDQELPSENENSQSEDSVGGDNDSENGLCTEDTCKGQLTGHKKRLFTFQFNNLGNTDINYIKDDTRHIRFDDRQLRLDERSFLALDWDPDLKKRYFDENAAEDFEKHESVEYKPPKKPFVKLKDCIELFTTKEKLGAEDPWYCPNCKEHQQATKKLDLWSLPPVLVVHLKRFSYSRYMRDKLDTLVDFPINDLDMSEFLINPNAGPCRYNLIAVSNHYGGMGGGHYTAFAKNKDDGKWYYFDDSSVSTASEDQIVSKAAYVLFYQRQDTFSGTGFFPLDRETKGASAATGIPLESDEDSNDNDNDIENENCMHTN
Assay: co-IP; HEK293 cells co-transfected with Myc-p66Shc (or its mutants) and Flag-USP15 (WT or C269A); IP with anti-Flag or anti-Myc antibody; western blot

binding: binds
Substance: Myc-p66Shc truncated mutant, SH2 domain (from UniProt P29353-1) (domain or fragment)
